Patent US20110086770A1
Results are given in words; binding and its absence hold for the method and conditions named. Some entries that bind do so weakly or less than the wild type. Tags and fused reporters may be left off the sequences shown.

Target: T1, recombinant mouse IL-23R/Fc chimera (R&D Systems) (mouse) (UniProt Q8K4B4)
T1 sequence (looked up): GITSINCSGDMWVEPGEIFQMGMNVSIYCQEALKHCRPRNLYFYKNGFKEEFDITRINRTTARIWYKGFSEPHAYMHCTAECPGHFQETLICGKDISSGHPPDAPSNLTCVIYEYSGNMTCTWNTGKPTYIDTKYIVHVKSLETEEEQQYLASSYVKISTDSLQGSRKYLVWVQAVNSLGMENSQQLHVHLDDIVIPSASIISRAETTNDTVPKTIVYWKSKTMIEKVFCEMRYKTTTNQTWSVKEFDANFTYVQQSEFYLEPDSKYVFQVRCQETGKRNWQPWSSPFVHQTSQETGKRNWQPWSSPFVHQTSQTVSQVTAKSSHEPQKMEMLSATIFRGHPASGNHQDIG
Experiment: phage ELISA on mouse IL-23R/Fc

B1: 105-106-6F1 (phage-displayed mouse TN CTLD clone) (designed binder)
chain: ALQTVCLKGTKVNLKCLLAFTQPKTFHEASEDCISQGGTLGTPQSELENEALFEYARHSVGNDANIWLGLNPGPGTRWWVDMTGGLLAYKNWETEITTQPDGGRSKSGENCAALSGAANGKWFDKRCRDQLPYICQFAIV
binding: binds
